Literature values, collected in patent US20260242330A1, “USE OF AN AMANTADINE MONONITRATE COMPOUND IN MANUFACTURE OF A MEDICAMENT FOR THE PREVENTION AND TREATMENT OF HYPERTENSION” (GUANGZHOU MAGPIE PHARMACEUTICALS CO., LTD., priority 2022, published 2026).
For at least one compound, name, drawing or mass did not settle the structure.

Test system: 24-hour blood pressure in primary hypertension
Conditions: cited from earlier work

CCOC(=O)C1=C(COCCN)NC(C)=C(C(=O)OC)C1c1ccccc1Cl (centres unmarked) [amlodipine]
average 24-hour dynamic diastolic pressure decrease: 10.05 mmHg | average 24-hour dynamic systolic pressure decrease: 17.43 mmHg
